Test results reported in patent US12729225B2, “Non-canonical SWI/SNF complex and uses thereof” (Dana-Farber Cancer Institute, Inc., priority 2018, dated 2026).

B1: DDX17 (protein, UniProt Q92841 1-729, looked up)
Probable ATP-dependent RNA …: MPTGFVAPILCVLLPSPTREAATVASATGDSASERESAAPAAAPTAEAPPPSVVTRPEPQALPSPAIRAPLPDLYPFGTMRGGGFGDRDRDRDRGGFGARGGGGLPPKKFGNPGERLRKKKWDLSELPKFEKNFYVEHPEVARLTPYEVDELRRKKEITVRGGDVCPKPVFAFHHANFPQYVMDVLMDQHFTEPTPIQCQGFPLALSGRDMVGIAQTGSGKTLAYLLPAIVHINHQPYLERGDGPICLVLAPTRELAQQVQQVADDYGKCSRLKSTCIYGGAPKGPQIRDLERGVEICIATPGRLIDFLESGKTNLRRCTYLVLDEADRMLDMGFEPQIRKIVDQIRPDRQTLMWSATWPKEVRQLAEDFLRDYTQINVGNLELSANHNILQIVDVCMESEKDHKLIQLMEEIMAEKENKTIIFVETKRRCDDLTRRMRRDGWPAMCIHGDKSQPERDWVLNEFRSGKAPILIATDVASRGLDVEDVKFVINYDYPNSSEDYVHRIGRTARSTNKGTAYTFFTPGNLKQARELIKVLEEANQAINPKLMQLVDHRGGGGGGGGRSRYRTTSSANNPNLMYQDECDRRLRGVKDGGRRDSASYRDRSETDRAGYANGSGYGSPNSAFGAQAGQYTYGQGTYGAAAYGTSSYTAQEYGAGTYGASSTTSTGRSSQSSSQQFSGIGRSGQQPQPLMSQQFAQPPGATNMIGYMGQTAYQYPPPPPPPPPSRK
B2: Ighg1 (protein, UniProt P01868 1-324, looked up)
Ig gamma-1 chain C region …: AKTTPPSVYPLAPGSAAQTNSMVTLGCLVKGYFPEPVTVTWNSGSLSSGVHTFPAVLQSDLYTLSSSVTVPSSPRPSETVTCNVAHPASSTKVDKKIVPRDCGCKPCICTVPEVSSVFIFPPKPKDVLTITLTPKVTCVVVDISKDDPEVQFSWFVDDVEVHTAQTQPREEQFNSTFRSVSELPIMHQDWLNGKEFKCRVNSAAFPAPIEKTISKTKGRPKAPQVYTIPPPKEQMAKDKVSLTCMITDFFPEDITVEWQWNGQPAENYKNTQPIMNTNGSYFVYSKLNVQKSNWEAGNTFTCSVLHEGLHNHHTEKSLSHSPGK
B3: DDX23 (protein, UniProt Q9BUQ8 1-820, looked up)
Probable ATP-dependent RNA …: MAGELADKKDRDASPSKEERKRSRTPDRERDRDRDRKSSPSKDRKRHRSRDRRRGGSRSRSRSRSKSAERERRHKERERDKERDRNKKDRDRDKDGHRRDKDRKRSSLSPGRGKDFKSRKDRDSKKDEEDEHGDKKPKAQPLSLEELLAKKKAEEEAEAKPKFLSKAEREAEALKRRQQEVEERQRMLEEERKKRKQFQDLGRKMLEDPQERERRERRERMERETNGNEDEEGRQKIREEKDKSKELHAIKERYLGGIKKRRRTRHLNDRKFVFEWDASEDTSIDYNPLYKERHQVQLLGRGFIAGIDLKQQKREQSRFYGDLMEKRRTLEEKEQEEARLRKLRKKEAKQRWDDRHWSQKKLDEMTDRDWRIFREDYSITTKGGKIPNPIRSWKDSSLPPHILEVIDKCGYKEPTPIQRQAIPIGLQNRDIIGVAETGSGKTAAFLIPLLVWITTLPKIDRIEESDQGPYAIILAPTRELAQQIEEETIKFGKPLGIRTVAVIGGISREDQGFRLRMGCEIVIATPGRLIDVLENRYLVLSRCTYVVLDEADRMIDMGFEPDVQKILEHMPVSNQKPDTDEAEDPEKMLANFESGKHKYRQTVMFTATMPPAVERLARSYLRRPAVVYIGSAGKPHERVEQKVFLMSESEKRKKLLAILEQGFDPPIIIFVNQKKGCDVLAKSLEKMGYNACTLHGGKGQEQREFALSNLKAGAKDILVATDVAGRGIDIQDVSMVVNYDMAKNIEDYIHRIGRTGRAGKSGVAITFLTKEDSAVFYELKQAILESPVSSCPPELANHPDAQHKPGTILTKKRREETIFA
B4: RPN1 (protein, UniProt P04843 24-607, looked up)
Dolichyl-diphosphooligosacchar …: ASSEAPPLINEDVKRTVDLSSHLAKVTAEVVLAHLGGGSTSRATSFLLALEPELEARLAHLGVQVKGEDEEENNLEVRETKIKGKSGRFFTVKLPVALDPGAKISVIVETVYTHVLHPYPTQITQSEKQFVVFEGNHYFYSPYPTKTQTMRVKLASRNVESYTKLGNPTRSEDLLDYGPFRDVPAYSQDTFKVHYENNSPFLTITSMTRVIEVSHWGNIAVEENVDLKHTGAVLKGPFSRYDYQRQPDSGISSIRSFKTILPAAAQDVYYRDEIGNVSTSHLLILDDSVEMEIRPRFPLFGGWKTHYIVGYNLPSYEYLYNLGDQYALKMRFVDHVFDEQVIDSLTVKIILPEGAKNIEIDSPYEISRAPDELHYTYLDTFGRPVIVAYKKNLVEQHIQDIVVHYTFNKVLMLQEPLLVVAAFYILFFTVIIYVRLDFSITKDPAAEARMKVACITEQVLTLVNKRIGLYRHFDETVNRYKQSRDISTLNSGKKSLETEHKALTSEIALLQSRLKTEGSDLCDRVSEMQKLDAQVKELVLKSAVEAERLVAGKLKKDTYIENEKLISGKRQELVTKIDHILDAL
B5: FIP1L1 (protein)
chain: MSAGEVERLVSELSGGTGGDEEEEWLYGGPWDVHVHSDLAKDLDENEVERPEEENASANPPSGIEDETAENGVPKPKVTETEDDSDSDSDDDEDDVHVTIGDIKTGAPQYGSYGTAPVNLNIKTGGRVYGTTGTKVKGVDLDAPGSINGVPLLEVDLDSFEDKPWRKPGADLSDYFNYGFNEDTWKAYCEKQKRIRMGLEVIPVTSTTNKITAEDCTMEVTPGAEIQDGRFNLFKVQQGRTGNSEKETALPSTKAEFTSPPSLFKTGLPPSRNSTSSQSQTSTASRKANSSVGKWQDRYGRAESPDLRRLPGAIDVIGQTITISRVEGRRRANENSNIQVLSERSATEVDNNFSKPPPFFPPGAPPTHLPPPPFLPPPPTVSTAPPLIPPPGFPPPPGAPPPSLIPTIESGHSSGYDSRSARAFPYGNVAFPHLPGSAPSWPSLVDTSKQWDYYARREKDRDRERDRDRERDRDRDRERERTRERERERDHSPTPSVFNSDEERYRYREYAERGYERHRASREKEERHRERRHREKEETRHKSSRSNSRRRHESEEGDSHRRHKHKKSKRSKEGKEAGSEPAPEQESTEATPAE
B6: CPSF1 (protein, UniProt Q10570 1-1443, looked up)
Cleavage and polyadenylation …: MYAVYKQAHPPTGLEFSMYCNFFNNSERNLVVAGTSQLYVYRLNRDAEALTKNDRSTEGKAHREKLELAASFSFFGNVMSMASVQLAGAKRDALLLSFKDAKLSVVEYDPGTHDLKTLSLHYFEEPELRDGFVQNVHTPRVRVDPDGRCAAMLVYGTRLVVLPFRRESLAEEHEGLVGEGQRSSFLPSYIIDVRALDEKLLNIIDLQFLHGYYEPTLLILFEPNQTWPGRVAVRQDTCSIVAISLNITQKVHPVIWSLTSLPFDCTQALAVPKPIGGVVVFAVNSLLYLNQSVPPYGVALNSLTTGTTAFPLRTQEGVRITLDCAQATFISYDKMVISLKGGEIYVLTLITDGMRSVRAFHFDKAAASVLTTSMVTMEPGYLFLGSRLGNSLLLKYTEKLQEPPASAVREAADKEEPPSKKKRVDATAGWSAAGKSVPQDEVDEIEVYGSEAQSGTQLATYSFEVCDSILNIGPCANAAVGEPAFLSEEFQNSPEPDLEIVVCSGHGKNGALSVLQKSIRPQVVTTFELPGCYDMWTVIAPVRKEEEDNPKGEGTEQEPSTTPEADDDGRRHGFLILSREDSTMILQTGQEIMELDTSGFATQGPTVFAGNIGDNRYIVQVSPLGIRLLEGVNQLHFIPVDLGAPIVQCAVADPYVVIMSAEGHVTMFLLKSDSYGGRHHRLALHKPPLHHQSKVITLCLYRDLSGMFTTESRLGGARDELGGRSGPEAEGLGSETSPTVDDEEEMLYGDSGSLFSPSKEEARRSSQPPADRDPAPFRAEPTHWCLLVRENGTMEIYQLPDWRLVFLVKNFPVGQRVLVDSSFGQPTTQGEARREEATRQGELPLVKEVLLVALGSRQSRPYLLVHVDQELLIYEAFPHDSQLGQGNLKVRFKKVPHNINFREKKPKPSKKKAEGGGAEEGAGARGRVARFRYFEDIYGYSGVFICGPSPHWLLVTGRGALRLHPMAIDGPVDSFAPFHNVNCPRGFLYFNRQGELRISVLPAYLSYDAPWPVRKIPLRCTAHYVAYHVESKVYAVATSTNTPCARIPRMTGEEKEFETIERDERYIHPQQEAFSIQLISPVSWEAIPNARIELQEWEHVTCMKTVSLRSEETVSGLKGYVAAGTCLMQGEEVTCRGRILIMDVIEVVPEPGQPLTKNKFKVLYEKEQKGPVTALCHCNGHLVSAIGQKIFLWSLRASELTGMAFIDTQLYIHQMISVKNFILAADVMKSISLLRYQEESKTLSLVSRDAKPLEVYSVDFMVDNAQLGFLVSDRDRNLMVYMYLPEAKESFGGMRLLRRADFHVGAHVNTFWRTPCRGATEGLSKKSVVWENKHITWFATLDGGIGLLLPMQEKTYRRLLMLQNALTTMLPHHAGLNPRAFRMLHVDRRTLQNAVRNVLDGELLNRYLYLSTMERSELAKKIGTTPDIILDDLLETDRVTAHF
B7: EEF1A1 (protein, UniProt P68104 2-462, looked up)
Elongation factor 1-alpha 1: GKEKTHINIVVIGHVDSGKSTTTGHLIYKCGGIDKRTIEKFEKEAAEMGKGSFKYAWVLDKLKAERERGITIDISLWKFETSKYYVTIIDAPGHRDFIKNMITGTSQADCAVLIVAAGVGEFEAGISKNGQTREHALLAYTLGVKQLIVGVNKMDSTEPPYSQKRYEEIVKEVSTYIKKIGYNPDTVAFVPISGWNGDNMLEPSANMPWFKGWKVTRKDGNASGTTLLEALDCILPPTRPTDKPLRLPLQDVYKIGGIGTVPVGRVETGVLKPGMVVTFAPVNVTTEVKSVEMHHEALSEALPGDNVGFNVKNVSVKDVRRGNVAGDSKNDPPMEAAGFTAQVIILNHPGQISAGYAPVLDCHTAHIACKFAELKEKIDRRSGKKLEDGPKFLKSGDAAIVDMVPGKPMCVESFSDYPPLGRFAVRDMRQTVAVGVIKAVDKKAAGAGKVTKSAQKAQKAK

Test system: mSWI/SNF complexes
Test: mSWI/SNF complex purification with HA-tagged baits and mass spectrometry (peptide counts)
Set-up: species or system human
[1] = 293_HA-BRD7: HA-BRD7 bait purification, total peptide count per co-purified protein
[2] = 293_HA-BRD7: HA-BRD7 bait purification, unique peptide count per co-purified protein
[3] = total peptide count of the co-purified protein, 293_HA-BRD9 (HA-BRD9 bait, mass spectrometry), Table 3b
[4] = unique peptide count of the co-purified protein, 293_HA-BRD9 (HA-BRD9 bait, mass spectrometry), Table 3b

Molecule | Total [1] | Unique [2] | Total [3] | Unique [4] | Total (293_HA-DPF2 purification, total peptides) | Unique (293_HA-DPF2 purification, unique peptides) | Total (293_HA-BRD7 bait purification, mass spectrometry, total peptides per co-purified protein) | Unique (293_HA-BRD7 bait purification, mass spectrometry, unique peptides per co-purified protein)
B1 | 13 | 13 | 5 | 5 |  |  |  | 
B2 | 10 | 6 | 5 | 4 | 1 | 1 |  | 
B3 |  |  | 6 | 6 |  |  | 3 | 3
B4 | 15 | 15 | 3 | 3 |  |  |  | 
B5 | 16 | 12 | 3 | 3 |  |  |  | 
B6 | 29 | 26 | 3 | 3 |  |  |  | 
B7 | 12 | 11 | 4 | 4 |  |  |  | 
